No constants are given. Whether binding was seen depends on the method and setting. Binding seen in cells or lysates may run through a third protein. Here binding means that the protein was enriched with, or labelled near, the bait; the list need not be complete. For some of these results: No binding means not detected with the bait.
Legend:
[1] = biological target: Zip4iTurboID (S. cerevisiae); assay: proximity labelling; TurboID fusion allele (homozygous, or heterozygous where said) in ndt80 diploid cells, 24 h in sporulation medium, endogenous biotin; TCA extract, 8% or 12% SDS-PAGE, streptavidin:HRP blot; also done in mutant backgrounds in which the labelling was kept
[2] = biological target: T1, Zip3iTurboID (S. cerevisiae) (UniProt Q06032); assay: as above
T1 sequence: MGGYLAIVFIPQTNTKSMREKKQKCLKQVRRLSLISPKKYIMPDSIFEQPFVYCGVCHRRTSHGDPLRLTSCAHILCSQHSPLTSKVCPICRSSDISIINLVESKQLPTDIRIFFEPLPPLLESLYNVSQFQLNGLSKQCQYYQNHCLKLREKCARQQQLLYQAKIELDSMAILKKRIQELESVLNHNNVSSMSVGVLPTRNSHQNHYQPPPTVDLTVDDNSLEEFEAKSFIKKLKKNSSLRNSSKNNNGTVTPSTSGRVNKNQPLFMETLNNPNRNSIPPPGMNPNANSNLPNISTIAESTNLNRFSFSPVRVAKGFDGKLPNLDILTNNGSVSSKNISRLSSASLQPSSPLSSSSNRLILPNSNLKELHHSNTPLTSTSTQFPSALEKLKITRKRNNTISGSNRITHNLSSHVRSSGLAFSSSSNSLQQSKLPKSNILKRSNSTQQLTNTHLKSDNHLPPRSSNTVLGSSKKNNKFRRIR

Chains of the proteins cited; added tags and fusions are not shown.
UniProt P51979: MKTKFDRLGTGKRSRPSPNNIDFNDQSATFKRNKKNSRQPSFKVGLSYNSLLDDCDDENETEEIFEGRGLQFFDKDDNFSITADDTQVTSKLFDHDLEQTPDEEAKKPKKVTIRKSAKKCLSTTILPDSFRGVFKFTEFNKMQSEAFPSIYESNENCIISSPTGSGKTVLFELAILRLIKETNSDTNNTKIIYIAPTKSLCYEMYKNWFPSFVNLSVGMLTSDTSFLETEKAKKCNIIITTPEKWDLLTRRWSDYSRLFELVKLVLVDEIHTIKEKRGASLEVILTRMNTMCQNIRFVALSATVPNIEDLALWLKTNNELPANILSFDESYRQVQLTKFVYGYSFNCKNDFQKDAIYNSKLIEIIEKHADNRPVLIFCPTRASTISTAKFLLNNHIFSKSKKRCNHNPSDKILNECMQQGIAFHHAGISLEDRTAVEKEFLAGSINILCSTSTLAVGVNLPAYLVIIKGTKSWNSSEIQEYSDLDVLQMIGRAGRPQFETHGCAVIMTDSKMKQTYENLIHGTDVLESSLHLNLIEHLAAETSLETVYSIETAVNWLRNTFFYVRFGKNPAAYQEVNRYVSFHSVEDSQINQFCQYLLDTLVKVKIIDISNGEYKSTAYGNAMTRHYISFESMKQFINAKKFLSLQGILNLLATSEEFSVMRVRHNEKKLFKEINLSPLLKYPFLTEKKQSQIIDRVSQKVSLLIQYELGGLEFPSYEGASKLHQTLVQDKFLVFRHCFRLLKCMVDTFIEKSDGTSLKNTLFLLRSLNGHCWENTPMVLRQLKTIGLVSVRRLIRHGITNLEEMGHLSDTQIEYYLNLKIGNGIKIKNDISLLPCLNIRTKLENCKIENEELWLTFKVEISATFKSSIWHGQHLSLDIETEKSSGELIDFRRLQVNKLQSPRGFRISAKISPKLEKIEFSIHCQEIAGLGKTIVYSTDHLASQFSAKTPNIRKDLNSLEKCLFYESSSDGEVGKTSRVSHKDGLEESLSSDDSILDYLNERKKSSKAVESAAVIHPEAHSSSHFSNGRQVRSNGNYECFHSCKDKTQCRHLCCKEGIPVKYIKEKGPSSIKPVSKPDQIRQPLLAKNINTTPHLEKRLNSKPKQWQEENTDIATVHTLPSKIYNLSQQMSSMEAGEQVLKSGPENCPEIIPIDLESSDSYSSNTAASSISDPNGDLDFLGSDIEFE

[3] = biological target: T2, TurboID-Gmc2 (S. cerevisiae) (UniProt Q06201); assay: proximity labelling; eleven TurboID fusion strains (ndt80, homozygous) and a no-TurboID control, ~24 h sporulation, two replicates; TCA extract, streptavidin-sepharose pull-down, trypsin, UPLC-MS/MS; targets = in both replicates and in neither control
T2 sequence: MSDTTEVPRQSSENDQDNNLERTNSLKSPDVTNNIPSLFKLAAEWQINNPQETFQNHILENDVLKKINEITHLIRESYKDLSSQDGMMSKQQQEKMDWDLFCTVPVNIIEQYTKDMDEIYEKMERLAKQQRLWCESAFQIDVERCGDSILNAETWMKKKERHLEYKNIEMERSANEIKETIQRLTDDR

[4] = biological target: Zip4iTurboID (S. cerevisiae); assay: as above
[5] = biological target: Zip4-TurboID (S. cerevisiae); assay: as above
[6] = biological target: Mer3-TurboID (S. cerevisiae) (UniProt P51979); assay: as above
[7] = biological target: T3, Mlh3-TurboID (S. cerevisiae) (UniProt Q12083); assay: as above
T3 sequence: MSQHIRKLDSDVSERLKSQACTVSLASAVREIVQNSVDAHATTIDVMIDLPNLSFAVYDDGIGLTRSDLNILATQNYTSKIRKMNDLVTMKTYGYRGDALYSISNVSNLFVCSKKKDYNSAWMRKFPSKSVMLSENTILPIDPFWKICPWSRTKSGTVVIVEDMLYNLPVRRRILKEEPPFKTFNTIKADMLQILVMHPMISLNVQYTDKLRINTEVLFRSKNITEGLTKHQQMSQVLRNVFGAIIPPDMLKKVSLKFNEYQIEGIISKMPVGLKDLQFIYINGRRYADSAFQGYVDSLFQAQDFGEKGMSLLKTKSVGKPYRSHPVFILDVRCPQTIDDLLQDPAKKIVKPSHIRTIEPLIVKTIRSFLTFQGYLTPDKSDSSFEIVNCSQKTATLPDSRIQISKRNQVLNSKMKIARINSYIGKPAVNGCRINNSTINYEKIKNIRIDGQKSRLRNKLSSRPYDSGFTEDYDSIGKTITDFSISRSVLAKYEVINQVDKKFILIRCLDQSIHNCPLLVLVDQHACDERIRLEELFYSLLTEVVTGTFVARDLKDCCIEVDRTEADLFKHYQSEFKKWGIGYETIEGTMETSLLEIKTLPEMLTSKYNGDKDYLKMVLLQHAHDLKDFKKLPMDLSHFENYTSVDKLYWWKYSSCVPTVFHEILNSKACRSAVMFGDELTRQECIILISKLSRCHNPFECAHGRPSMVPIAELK

binding [1]: binds weakly
binding [2]: binds
binding [3]: no binding
binding [4]: binds
binding [5]: binds
binding [6]: binds
binding [7]: no binding
B1: Zip3 (protein, UniProt Q06032 1-482)
chain: MGGYLAIVFIPQTNTKSMREKKQKCLKQVRRLSLISPKKYIMPDSIFEQPFVYCGVCHRRTSHGDPLRLTSCAHILCSQHSPLTSKVCPICRSSDISIINLVESKQLPTDIRIFFEPLPPLLESLYNVSQFQLNGLSKQCQYYQNHCLKLREKCARQQQLLYQAKIELDSMAILKKRIQELESVLNHNNVSSMSVGVLPTRNSHQNHYQPPPTVDLTVDDNSLEEFEAKSFIKKLKKNSSLRNSSKNNNGTVTPSTSGRVNKNQPLFMETLNNPNRNSIPPPGMNPNANSNLPNISTIAESTNLNRFSFSPVRVAKGFDGKLPNLDILTNNGSVSSKNISRLSSASLQPSSPLSSSSNRLILPNSNLKELHHSNTPLTSTSTQFPSALEKLKITRKRNNTISGSNRITHNLSSHVRSSGLAFSSSSNSLQQSKLPKSNILKRSNSTQQLTNTHLKSDNHLPPRSSNTVLGSSKKNNKFRRIR

— article PMC11508090
